These results are taken from PubChem BioAssay (NCATS).

Several values for one entry are separate records, joined by “and”; a condition that tells them apart may be missing. Equal values may be shown once. The list shows a part of the results. Further columns of the screen follow, without active or inactive calls. Most of these compounds were active or inconclusive in the main read-out, so they are no random draw.

A short description of one test: qHTS assay for small molecule agonists of retinoid X receptor alpha signaling (AID 588544). To be noted: HEK293T RXRa-UAS-bla, beta-lactamase reporter, 18 h; 530 nm emission.
As for `ClC1=C(Cl)C2(Cl)C3C(Cl)C=CC3C1(Cl)C2(Cl)Cl` (centres undefined), the max response is 19.2%.

As for `CCC[CH2][Sn]([Cl])([Cl])[CH2]CCC`, the max response is -18.7%.

`O=C(O)c1ccccc1Nc1cccc(C(F)(F)F)c1`: the max response came to 43.1%.

Turning to `COP(=O)(OC)OC(Br)C(Cl)(Cl)Br` (centres undefined), the max response came to 1.82%.

On to `CCOP(=S)(OCC)SC(CCl)N1C(=O)c2ccccc2C1=O` (centres undefined), for which the max response was found to be 9.31%.

Turning to `CCOP(=S)(OCC)SCn1nnc2ccccc2c1=O`, the max response came to 16%.

Turning to `c1ccc(-c2ccc(-c3ccccc3)cc2)cc1`, the max response is -2.81%.

As for `O=S(=O)(c1ccc(Cl)cc1)c1ccc(Cl)cc1`, the max response came to 2.66%.

For `CCOP(=S)(NC(C)C)Oc1ccccc1C(=O)OC(C)C` (centres undefined), the max response stood at 7.54%.

Turning to `CC1(C)C(C=C(Cl)Cl)C1C(=O)OCc1cccc(Oc2ccccc2)c1` (centres undefined), the max response was 27.9% and -12.2%.

On to `Cc1cc(-c2ccc(N)c(C)c2)ccc1N`, for which the max response came out at 27.1%.

As for `CCC[CH2][Sn]([CH2]CCC)([CH2]CCC)[CH2]CCC`, the max response was determined as 1.38%.

In the case of `COP(=S)(OC)Oc1nc(Cl)c(Cl)cc1Cl`, the max response came out at 56.4%.

With `CCO/N=C(\CC)C1=C(O)CC(c2c(C)cc(C)cc2C)CC1=O` (centres undefined), the max response is -15.8%.

Turning to `S=C([S-])NCCNC(=S)[S-].[Zn+2]`, the max response was 90.6% and 32.8%.

As for `CCC(C)(C)c1ccc(O)c(C(C)(C)CC)c1`, the max response is -14.2%.

For the compound `CCOP(=O)(OCC)SCSP(=S)(OCC)OCC`, the max response came to 4.08%.

As to `OC(c1ccc(Cl)cc1)(c1cncnc1)c1ccccc1Cl` (centres undefined), the max response amounted to 29.2%.

For the compound `O=C1C[C@@H]2OCC=C3CN4CC[C@]56c7ccccc7N1[C@H]5[C@H]2[C@H]3C[C@H]46`, the max response was -5.34%.

Regarding `S=C([S-])NCCNC(=S)[S-].[Mn+2]`, the max response was 8.99% and 23%.

Turning to `ClC1=C(Cl)[C@]2(Cl)[C@@H]3[C@@H]4C[C@@H]([C@H]5O[C@@H]45)[C@@H]3[C@@]1(Cl)C2(Cl)Cl`, the max response was 6.92%.

Regarding `C=CCC1=C(C)C(OC(=O)C2C(C=C(C)C)C2(C)C)CC1=O` (centres undefined), the max response was -10.5%.

On to `Nc1ccccc1C(=O)OCCc1ccccc1`, for which the max response is 17.5%.

In the case of `O=[N+]([O-])c1ccc(Oc2ccc(Cl)cc2Cl)cc1`, the max response stood at 2.67%.

Regarding `O=C(O)COc1ccc(Cl)cc1Cl`, the max response is 39.9% and 41.5% and 22%.

Take `CCCCCCCCCc1ccc(O)cc1`: the max response is -68.9%.

Consider `O=[N+]([O-])C(Br)(CO)CO`, for which the max response was 59.9%.

The nature of a further test: qHTS assay for small molecule antagonists of retinoid X receptor alpha signaling (AID 588546).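 Further: cells stimulated with 9-cis-retinoic acid as agonist; on the % scale 0 is the no-effect control and ±100 the full control effect.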 The settings on record: HEK293T RXRa-UAS-bla, beta-lactamase ratio, antagonist mode; measured here: W530 green channel, cytotoxicity proxy. The method in brief: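 Beta-lactamase reporter inhibition, read as CCF4 fluorescence ratio (ex 405, em 460/530 nm) after 2 h at RT. HEK293T UAS-bla cells, 2500/well, were stimulated with 9-cis-RA at 500 or 100 nM final alongside test compound for 18 h at 37 C.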
(In general: Quantitative high-throughput screening tests each substance at several concentrations.)
Regarding `COP(=O)(OC)OC(Br)C(Cl)(Cl)Br` (centres undefined), the max response is -10.7%.

Take `CCOP(=O)(OCC)Oc1ccc([N+](=O)[O-])cc1`: the max response was -16.6%.

Turning to `CC(C)(OOC(C)(C)c1ccccc1)c1ccccc1`, the max response is -30.6%.

As to `S=C([S-])NCCNC(=S)[S-].[Zn+2]`, the max response is -12.7%.

Turning to `S=C([S-])NCCNC(=S)[S-].[Mn+2]`, the max response was 17.2% and -7.55%.

Turning to `CCCCCCCCCc1ccc(O)cc1`, the max response was -35%.

As for `O=[N+]([O-])C(Br)(CO)CO`, the max response is -50.8%.
